This is one part of the list. These are further read-outs of the screen, such as a control signal, another cell line or another target. No call is given for them. The list favours compounds with an active or inconclusive main result. Words in brackets tell the shape of the fitted curve; partial curves, single points and poor fits give uncertain potencies.
Assay: qHTS Assay for Modulators of Lamin A Splicing
Conditions: HeLa LMNA splicing GFP/RFP minigene ratio, 48 h
In short: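 S3 HeLa cells stably expressing lamin A-EGFP splicing minigene plus DsRed2, 600 cells/well, 48 h compound exposure at 37C. Laser-scanning cytometry; analysed as GFP (500-530 nm)/RFP (575-640 nm) total intensity ratio; 0.5% DMSO vehicle.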

[1] = measured here: RFP viability control channel
[2] = measured here: GFP splicing reporter channel

SMILES | AC50 [1] | AC50 [2]
COc1ccc(Br)cc1/C(C)=N/NC1=NCCN1 | 11.2 µM [rising, partial curve] | 
COc1ccc(C(=O)c2ccc(OC)c(N)c2)cc1N | 0.794 µM [rising, full curve, poor fit] | 
Cc1ccc(NC(=O)CSc2ccc(-c3ccc4c(c3)OCO4)nn2)cc1F | 12.6 µM [rising, partial curve, poor fit] | 
O=C(N/C=C/c1ccccc1)Nc1ccc(Cl)cc1 | 31.6 µM [rising, single point] | 35.5 µM [rising, single point]
CCN(C(=O)CSc1nnc(Cn2nnc3ccccc32)o1)c1nc(-c2ccccc2)cs1 | 22.4 µM [rising, single point] | 
O=C(c1ccco1)N1CCN(CCCCOc2ccc(F)cc2)CC1 | 7.08 µM [rising, partial curve, poor fit] | 14.1 µM [rising, partial curve]
Cc1ccc(C(=O)NCC(c2ccc3c(c2)OCO3)N2CCN(c3ccc(F)cc3)CC2)cc1 (stereo not given) | 35.5 µM [falling, single point] | 35.5 µM [falling, single point]
COc1cccc(-c2cc(NCc3ccc(OC)cc3OC)ncn2)c1 | 8.91 µM [falling, partial curve] | 8.91 µM [falling, partial curve]
Cc1ccccc1C(=O)Nc1ccccc1C(=O)NCC(C)C | 1.12 µM [falling, full curve, poor fit] | 
COC(=O)C1=C(Nc2ccc(OC)cc2)C=C(C)C(C(=O)OC)C1c1ccc(C)cc1 (stereo not given) | 8.91 µM [rising, partial curve] | 8.91 µM [rising, partial curve]
COc1ccccc1NC(=O)CN1C(=O)NC2(CCCCCCC2)C1=O |  | 0.0316 µM [falling, full curve, poor fit]
Clc1ccccc1CNc1ncnc2c1nc1n2CCCC1 | 35.5 µM [rising, single point] | 12.6 µM [falling, single point]
CCc1ccc(OCCCC(=O)Nc2ccc(S(N)(=O)=O)cc2)cc1 | 0.631 µM [falling, full curve, poor fit] | 7.08 µM [falling, partial curve, poor fit]
O=C(N/N=C/C=C/c1ccccc1)c1n[nH]c2c1CCC2 | 7.94 µM [rising, partial curve, poor fit] | 
NC1=NC(=O)/C(=C\c2cccnc2)S1 | 7.08 µM [falling, partial curve] | 
CCn1c2ccccc2c2cc(NC(=O)c3cc(OC)cc(OC)c3)ccc21 | 1.58 µM [rising, partial curve] | 3.16 µM [rising, single point]
O=C1NC2(C=Cc3c(ccc4ccccc34)O2)Oc2ccccc21 (stereo not given) | 35.5 µM [falling, single point] | 20 µM [falling, single point]

SMILES | AC50 [1] | AC50 [2]
Cc1[nH]c2c(C)cccc2c1CCNC(=O)c1ccc2c(c1[N+](=O)[O-])C(=O)c1ccccc1C2=O | 35.5 µM [falling, single point] | 35.5 µM [falling, single point]
Cc1ccc(N(CC(=O)NN=C2CCN(C)CC2)S(=O)(=O)c2ccc(C)cc2)cc1 | 5.62 µM [falling, single point] | 
COc1ccc2[nH]cc(CCNc3ncnc4ccc(-c5ccc6c(c5)OCO6)cc34)c2c1 | 17.8 µM [falling, single point] | 12.6 µM [falling, partial curve]
CCN(CC)S(=O)(=O)c1ccc(C(=O)NCCN2C(=O)S/C(=C\c3cccnc3)C2=O)cc1 | 6.31 µM [rising, partial curve, poor fit] | 
COc1ccc(CCNC(=O)CSc2nnnn2C)cc1OC |  | 0.0708 µM [falling, full curve, poor fit]
Cc1cc(C(=O)N/N=C/c2cc([N+](=O)[O-])cc(C)c2O)n[nH]1 | 5.01 µM [rising, full curve, poor fit] | 0.178 µM [falling, full curve, poor fit]
CCOC(=O)c1c(-c2ccccc2)csc1NC(=O)CSc1nnc(C)s1 | 10 µM [rising, partial curve] | 5.62 µM [rising, partial curve]
Cc1ccc(S(=O)(=O)Nc2cc(=O)[nH]c(SCC(=O)Nc3ccccc3Cl)n2)cc1 |  | 0.00316 µM [rising, full curve, poor fit]
COc1ccc(NC(=O)CN2C(=O)C(C)(C)c3ccccc32)cc1Cl |  | 8.91 µM [falling, partial curve]
Cc1ccc(-n2c(Cn3c(C)nc4ccccc43)n[nH]c2=S)cc1 | 11.2 µM [falling, partial curve] | 
CC(Sc1nc2ccccc2s1)C(=O)NC1CCCc2ccccc21 (stereo not given) | 20 µM [rising, single point] | 12.6 µM [rising, single point]
Cc1cc(C(=O)CSc2nnc(N)s2)c(C)n1CCc1ccc(Cl)cc1 | 35.5 µM [rising, single point] | 
O=c1oc2ccccc2c(Nc2ccccc2)c1[N+](=O)[O-] | 17.8 µM [rising, single point] | 35.5 µM [rising, single point]
CCc1cc(-c2n[nH]c(C)c2-c2nc3ccccc3n2C)c(O)cc1O | 28.2 µM [falling, partial curve, poor fit] | 0.02 µM [falling, full curve, poor fit]
CCCS(=O)(=O)N1CCN(Cc2ccc3c(c2)c2ccccc2n3CC)CC1 | 35.5 µM [rising, single point] | 17.8 µM [rising, single point]
COC(=O)Nc1nc(-c2ccccc2)c(C(=O)c2ccccc2)s1 | 0.251 µM [rising, full curve] | 

Looked up by compound from the list above, two records:
SMILES | AC50 [1] | AC50 [2]
Cc1ccc(N(CC(=O)NN=C2CCN(C)CC2)S(=O)(=O)c2ccc(C)cc2)cc1 | 5.62 µM [falling, single point] | 
CC(Sc1nc2ccccc2s1)C(=O)NC1CCCc2ccccc21 (stereo not given) | 20 µM [rising, single point] | 12.6 µM [rising, single point]
